Measurements taken from PubChem BioAssay AID493014 (National Center for Advancing Translational Sciences (NCATS), 2011).
Some of the results follow. These are further read-outs of the screen, such as a control signal, another cell line or another target. No call is given for them. Most of these compounds were active or inconclusive in the main read-out, so they are no random draw. Potencies come from curve fits of mixed quality, noted in brackets.

Experiment: qHTS Assay to Find Inhibitors of Chronic Active B-Cell Receptor Signaling
Settings: ABC-DLBCL IkBa-CBG/CBR reporter, luminescence ratio (green luciferase fused to IkBa over red control in TMD8 lymphoma cells), 4 h
Outline: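 Concentration-response series (up to 46 uM) were applied to TMD8 dual-reporter cells for 4 h at 37C with doxycycline. Green/red ratio, after filter-overlap correction, defined %Activity; red signal alone was normalised to basal cells and zero luminescence.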

[1] = measured here: CBR red luminescence, cell number
[2] = measured here: IkBa-CBG green luminescence

SMILES	AC50 [1]	AC50 [2]
CN(C)c1ccc(CNCCC(Cc2ccccc2)c2ccco2)cc1 (configuration not stated)	10 µM [falling, partial curve, poor fit]	
Cc1ccc2nc(SCC(=O)NCc3ccc(F)cc3)nc(=O)n2c1	6.51 µM [rising, single point]	
N#C/C(N)=C(/C#N)N=Cc1cccc(Cl)c1	22.4 µM [falling, single point]	
COc1ccc(C2c3ccc4ccccc4c3Oc3ncn(CCO)c(=N)c32)cc1OC (configuration not stated)	35.5 µM [falling, single point]	
O=C(Nc1nccs1)C1CCN(S(=O)(=O)c2cnc[nH]2)CC1	29.1 µM [falling, single point]	
O=C(Nc1cccc(Br)c1)c1cc(=O)c2ccccc2o1	1.58 µM [rising, partial curve, poor fit]	
CCOC(=O)c1sc(NC(=O)CC(C)c2ccccc2)nc1C (configuration not stated)	1.12 µM [falling, partial curve]	
CNC(=S)N/N=C(\C)c1ccccc1		35.5 µM [falling, single point]
O=C(NCCN1C(=O)S/C(=C/c2ccccc2)C1=O)C1CC(=O)N(Cc2ccccc2)C1 (configuration not stated)	10.3 µM [falling, partial curve]	
CCOc1cc(C(=O)NC(=S)Nn2cnnc2)cc(OCC)c1OCC	7.08 µM [falling, full curve, poor fit]	
CCOc1ccc2nc(NC3=NC(C)(C)C=C(C)N3)nc(C)c2c1	29.1 µM [falling, single point]	
Cc1ccsc1C1CC(=O)Nc2ccccc2S1 (configuration not stated)	15.8 µM [falling, single point]	
COC(=O)C1CCN(C(=O)COc2ccc(Cl)cc2)CC1	9.2 µM [falling, partial curve]	
NCC12CC3CC(C1)CC(c1ccc(Br)cc1)(C3)C2	35.5 µM [falling, single point]	
CCOCC(=O)Nc1nc2ccc(C)cc2s1	14.6 µM [falling, partial curve]	
O=c1c2ccccc2nc(/C=C/c2ccc(Br)cc2)n1CCCO	2 µM [rising, partial curve, poor fit]	
CCc1ccc(OCC(=O)NC(=S)Nc2ccc(C)cc2C)c(Br)c1	6.31 µM [rising, full curve]	
COC(=O)CSc1ccc(C#N)c(SCC(=O)OC)c1	17.8 µM [falling, single point]	
Cc1ccc(OCCNc2ccc(C(F)(F)F)cc2[N+](=O)[O-])cc1	11.6 µM [rising, partial curve]	
CC(=O)c1ccc2c3c(ccc(O)c13)CC2	11.2 µM [rising, partial curve, poor fit]	
CC(C)Cn1c(N)c(C(=O)NCCN2CCOCC2)c2nc3ccccc3nc21	6.51 µM [falling, partial curve, poor fit]	
COc1ccc(CNC(=O)c2cc(-n3cnnc3)ccc2Cl)cc1	6.51 µM [rising, single point]	

SMILES	AC50 [1]	AC50 [2]
Cc1c(/C(O)=C2/C(=O)C(=O)N(CCN3CCOCC3)C2c2cccs2)cnn1-c1ccccc1 (configuration not stated)	0.58 µM [rising, partial curve, poor fit]	
COC(=O)CCC(=O)NC(=S)Nc1cc(Cl)ccc1Cl	8.91 µM [falling, partial curve, poor fit]	
COc1cccc(-c2cc(C(=O)N3CCc4ccccc4C3)[nH]n2)c1	22.4 µM [falling, partial curve, poor fit]	
O=C(Nc1cccs1)N1CCN(c2ncccn2)CC1	10 µM [falling, partial curve, poor fit]	
Cc1ccc(NC(=O)COC(=O)c2csc3c2CCC(C)C3)cc1S(=O)(=O)N1CCCCC1 (configuration not stated)		3.26 µM [rising, full curve, poor fit]
COc1ccc(S(=O)(=O)N2CCN(C)CC2)c2ccccc12	16.4 µM [rising, partial curve, poor fit]	
O=C(c1ccco1)c1cn(CC(=O)N2CCCC2)c2ccccc12	0.708 µM [falling, full curve, poor fit]	
Cc1ccc(NC(=O)NCC(c2ccccc2)N(C)C)cc1 (configuration not stated)	8.91 µM [rising, partial curve]	
Cc1ccnc2nc(C(=O)NCCc3ccc(F)cc3)nn12	35.5 µM [falling, single point]	
CCC(=O)N1CCN(c2ccccc2NC(=O)COc2cccc(C)c2C)CC1	15.8 µM [falling, single point]	
COc1cc(C(=O)Oc2cccc(Nc3ncnc4ccccc34)c2)cc(OC)c1OC	7.94 µM [falling, partial curve]	
CCc1cc(=O)oc2c3c(cc(OCC(=O)NCCCCCC(=O)O)c12)OC(C)(C)CC3	0.501 µM [rising, partial curve, poor fit]	
Cc1c(NC(=O)c2ccc(-c3ccccc3)cc2)cccc1C(=O)O	11.2 µM [falling, partial curve]	
O=C(c1ccc(CNS(=O)(=O)c2ccccc2)cc1)N1CCN(c2ccccn2)CC1	14.1 µM [falling, single point]	
CCc1nc(SCC(=O)Nc2ccccc2C(=O)OC)n[nH]1	6.51 µM [falling, partial curve, poor fit]	
COC(=O)c1ccc2c(=O)[nH]c(COC(=O)c3[nH]c(C)c(C(C)=O)c3C)nc2c1	0.146 µM [rising, full curve, poor fit]	0.092 µM [falling, full curve, poor fit]
O=C(Nc1ccc(F)c(F)c1)c1cc(S(=O)(=O)NC2CCCC2)ccc1F	5.01 µM [falling, partial curve, poor fit]	
COc1ccc(NC(=O)c2ccc(C#CC(C)(C)O)cc2)cc1	29.1 µM [falling, single point]	
O=C(Nc1ccccn1)c1ccc(CN(c2ccccc2)S(=O)(=O)c2ccccc2)cc1	12.6 µM [falling, partial curve, poor fit]	
Cc1cc(NC(=O)c2ccc(C#N)cc2)on1	3.55 µM [rising, partial curve, poor fit]	
N#C/C(=C/c1cccc([N+](=O)[O-])c1)c1nnc2n1CCCCC2	29.1 µM [falling, single point]	
O=C(NC1CC1)C1=C[C@@H](C2CCCCC2)C[C@@H](OCc2ccc(CO)cc2)O1	0.1 µM [falling, full curve, poor fit]	

At a glance, some entries already given.
SMILES	AC50 [1]	AC50 [2]
CCc1cc(=O)oc2c3c(cc(OCC(=O)NCCCCCC(=O)O)c12)OC(C)(C)CC3	0.501 µM [rising, partial curve, poor fit]	
Cc1c(NC(=O)c2ccc(-c3ccccc3)cc2)cccc1C(=O)O	11.2 µM [falling, partial curve]	
O=C(c1ccc(CNS(=O)(=O)c2ccccc2)cc1)N1CCN(c2ccccn2)CC1	14.1 µM [falling, single point]	

Remaining list, next part.

SMILES	AC50 [1]	AC50 [2]
COc1cccc(NC(=O)N(CCCN2CCOCC2)C(C)c2cc3ccccc3o2)c1 (configuration not stated)	18.4 µM [falling, single point]	
CC(=O)n1cc([C@@H]2C=C(C(=O)Nc3ccccc3)O[C@H](OCc3ccc(CO)cc3)C2)c2ccccc21	11.2 µM [falling, partial curve]	
CCOC(=O)C1=C(c2ccccc2)OC(N)=C(C#N)C1c1cccs1 (configuration not stated)	35.5 µM [falling, single point]	
Cc1c[nH]c2cccc(OCC(CNC(C)(C)C)OC(=O)c3ccccc3)c12 (configuration not stated)	15.8 µM [falling, single point]	
COc1ccccc1C(c1nnnn1CCc1ccccc1)N1CCCCCC1 (configuration not stated)	29.1 µM [falling, single point]	
CCCC(=O)Nc1sc2c(c1C#N)CCCCC2	1.3 µM [rising, full curve, poor fit]	
O=C(COC(=O)c1ccc(Cl)nc1)Nc1ccc2ccccc2c1	32.6 µM [rising, single point]	
O=c1c2[nH]c3ccccc3c2ncn1Cc1ccco1	35.5 µM [falling, single point]	
Nc1c(S(=O)(=O)c2cccc(Cl)c2)c2nc3ccccc3nc2n1/N=C/c1ccc(O)c(O)c1	3.98 µM [falling, partial curve, poor fit]	
COC(=O)c1cc(NS(=O)(=O)c2ccc(N3CCC(C)CC3)c([N+](=O)[O-])c2)cc(C(=O)OC)c1	0.116 µM [falling, full curve, poor fit]	
O=[N+]([O-])c1cccc(-c2nnc(-c3ccccc3F)o2)c1	0.501 µM [rising, full curve, poor fit]	
Cc1nn(C(=O)c2cccs2)c(N)c1-c1ccccc1	6.51 µM [rising, partial curve, poor fit]	
C=CCNC(=O)c1ccccc1NC(=O)COc1ccccc1	35.5 µM [falling, single point]	
CCn1c(=O)c([N+](=O)[O-])c(Cl)c2ccccc21	15.8 µM [rising, partial curve]	8.91 µM [falling, partial curve]
C=CCn1c(=NC(=O)c2cccs2)sc2cc(NC(C)=O)ccc21	28.2 µM [falling, single point]	
Oc1ccc(Br)cc1-c1nc2cnccn2c1NC1CCCCC1	0.651 µM [falling, full curve, poor fit]	
O=S(c1ccsc1)c1ccsc1	29.1 µM [rising, single point]	
O=c1[nH]c(CSc2nc(-c3ccccc3)cs2)nc2ccccc12	29.1 µM [falling, single point]	
CC(C)Cc1ccc(S(=O)(=O)N2CCN(C(=O)c3ccco3)CC2)cc1	8.91 µM [falling, partial curve]	
COc1cccc(C(=O)N2CCn3c2nc2ccccc23)c1	5.01 µM [rising, partial curve]	
COc1ccc(-c2c(N)nnc3c2[nH]c2ccccc23)cc1OC	12.6 µM [falling, single point]	
